Measurements: publication PMC7830611
No constants are given. Whether binding was seen depends on the method and setting. For some assays here: Binding seen in cells or lysates may run through a third protein. Some binding calls cover weakened binding; strength is not graded here. For some assays here: Sequences can lack the tags named with a protein. Blank lines part the entries; values can stand above or below the binder they belong to.

What was measured:
[1] = molecular target: T1, AtCAX1, full length, in pGBKT7 (Arabidopsis thaliana) (UniProt Q39253); assay: two-hybrid; Matchmaker Gold system, Y2HGold yeast; AtCAX1 constructs in pGBKT7, AtCAX4 constructs in pGADT7; SD-Leu-Trp-His-Ade+X-a-gal+AbA medium, 2-3 days at 30 °C; blue colonies
T1 sequence: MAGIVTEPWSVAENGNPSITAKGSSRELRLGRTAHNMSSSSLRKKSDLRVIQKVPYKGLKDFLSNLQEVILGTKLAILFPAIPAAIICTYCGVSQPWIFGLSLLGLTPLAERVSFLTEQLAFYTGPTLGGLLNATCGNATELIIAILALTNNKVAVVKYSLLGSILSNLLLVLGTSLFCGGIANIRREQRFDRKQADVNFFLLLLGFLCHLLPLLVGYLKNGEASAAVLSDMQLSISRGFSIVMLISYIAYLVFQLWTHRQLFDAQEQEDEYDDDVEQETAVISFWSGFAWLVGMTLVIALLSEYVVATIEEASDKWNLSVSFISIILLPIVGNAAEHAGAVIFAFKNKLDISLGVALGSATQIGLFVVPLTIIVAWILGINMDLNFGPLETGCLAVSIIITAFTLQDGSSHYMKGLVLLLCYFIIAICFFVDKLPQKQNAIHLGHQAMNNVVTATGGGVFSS

[2] = molecular target: T2, AtCAX1, full length, BiFC fusion (Arabidopsis thaliana) (UniProt Q39253); assay: split reporter; BiFC with mVenus halves VN154 (nGFP) and VC80 (cGFP), 35S promoter, co-expressed in onion epidermal cells by particle bombardment; confocal microscopy
T2 sequence: T1 sequence

- binding [1]: binds
B1: AtCAX4, full length, in pGADT7 (protein, UniProt Q945S5 1-446)
chain: MSSISTESSSNLSLLENGGGGSDKPTAETSRRVRRTVSASSLIRKRSDLKLISRVRWEFMRRILTNLQEVLLGTKLFILFPAVPLAVVAHRYDCPRAWVFALSLLGLTPLAERISFLTEQIAFHTGPTVGGLMNATCGNATEMIIAILAVGQRKMRIVKLSLLGSILSNLLFVLGTSLFLGGISNLRKHQSFDPRQGDMNSMLLYLALLCQTLPMIMRFTMEAEEYDGSDVVVLSRASSFVMLIAYLAFLIFHLFSSHLSPPPPPLPQREDVHDDDVSDKEEEGAVIGMWSAIFWLIIMTLLVALLSDYLVSTIQDAADSWGLSVGFIGIILLPIVGNAAEHAGAVIFAFRNKLDITLGIALGSATQIALFVVPVTVLVAWTMGIEMDLNFNLLETACFALSILVTSLVLQDGTSNYMKGLVLLLCYVVIAACFFVSNSPSSKLLF

- binding [2]: binds
B2: AtCAX4, full length, BiFC fusion (protein, UniProt Q945S5 1-446)
chain: B1 chain
